## Screening data, single-dose tests

Sequences of proteins named here, by UniProt entry; tags and fusion partners are left off.
UniProt I6X8D2, whole entry: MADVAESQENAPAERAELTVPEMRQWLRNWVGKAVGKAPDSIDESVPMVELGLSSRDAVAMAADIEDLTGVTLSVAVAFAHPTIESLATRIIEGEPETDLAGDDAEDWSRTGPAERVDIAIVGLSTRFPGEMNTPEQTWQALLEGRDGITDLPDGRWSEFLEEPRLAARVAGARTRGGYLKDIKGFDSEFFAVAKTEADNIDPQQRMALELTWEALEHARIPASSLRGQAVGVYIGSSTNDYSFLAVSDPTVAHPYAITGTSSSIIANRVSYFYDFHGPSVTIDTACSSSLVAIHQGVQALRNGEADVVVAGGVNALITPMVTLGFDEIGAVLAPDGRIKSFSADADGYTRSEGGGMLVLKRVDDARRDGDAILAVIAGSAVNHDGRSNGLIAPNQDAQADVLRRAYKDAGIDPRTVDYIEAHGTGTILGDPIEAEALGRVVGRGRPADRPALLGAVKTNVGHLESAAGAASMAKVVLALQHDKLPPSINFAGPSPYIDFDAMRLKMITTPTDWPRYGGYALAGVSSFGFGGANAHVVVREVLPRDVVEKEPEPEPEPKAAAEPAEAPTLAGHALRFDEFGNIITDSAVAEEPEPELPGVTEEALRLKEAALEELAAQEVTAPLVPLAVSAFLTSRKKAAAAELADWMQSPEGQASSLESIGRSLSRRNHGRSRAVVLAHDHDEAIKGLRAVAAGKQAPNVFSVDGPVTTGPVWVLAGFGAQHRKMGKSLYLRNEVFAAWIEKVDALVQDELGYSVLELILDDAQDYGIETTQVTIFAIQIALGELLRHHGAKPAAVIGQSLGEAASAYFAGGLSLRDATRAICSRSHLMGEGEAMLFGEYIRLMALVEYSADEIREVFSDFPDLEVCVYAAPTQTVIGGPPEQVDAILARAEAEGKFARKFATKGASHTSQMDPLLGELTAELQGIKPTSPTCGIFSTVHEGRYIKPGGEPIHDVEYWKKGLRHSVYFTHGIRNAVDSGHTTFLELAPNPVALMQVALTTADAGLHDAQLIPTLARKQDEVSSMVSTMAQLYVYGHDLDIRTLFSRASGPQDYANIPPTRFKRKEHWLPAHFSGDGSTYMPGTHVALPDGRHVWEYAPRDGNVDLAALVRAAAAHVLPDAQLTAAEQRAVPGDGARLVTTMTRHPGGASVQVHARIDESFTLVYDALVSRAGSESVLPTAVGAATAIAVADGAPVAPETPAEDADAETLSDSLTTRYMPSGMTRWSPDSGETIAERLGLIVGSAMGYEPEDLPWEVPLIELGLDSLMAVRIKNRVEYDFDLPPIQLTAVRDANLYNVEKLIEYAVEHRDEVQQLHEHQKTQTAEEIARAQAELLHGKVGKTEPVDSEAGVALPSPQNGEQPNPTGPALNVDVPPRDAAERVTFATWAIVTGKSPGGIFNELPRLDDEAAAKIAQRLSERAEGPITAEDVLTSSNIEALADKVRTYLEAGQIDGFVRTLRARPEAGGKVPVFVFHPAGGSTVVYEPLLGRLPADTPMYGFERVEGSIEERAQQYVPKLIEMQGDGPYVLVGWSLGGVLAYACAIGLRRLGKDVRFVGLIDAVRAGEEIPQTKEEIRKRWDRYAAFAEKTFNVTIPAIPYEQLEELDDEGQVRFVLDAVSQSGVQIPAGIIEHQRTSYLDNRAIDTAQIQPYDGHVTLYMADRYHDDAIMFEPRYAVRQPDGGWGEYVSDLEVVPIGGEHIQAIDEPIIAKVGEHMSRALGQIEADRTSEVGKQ

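Polyketide synthase Pks13, Mycobacterium tuberculosis (UniProt I6X8D2). Enzyme assay of the thioesterase domain of polyketide synthase 13; the read-out is not stated. Concentration: 30 µM. Higher reads as stronger inhibition (inferred from which compounds were picked for retests). Size under these conditions: about 67,000 compounds, about 300 of them at 50% or above in at least one test.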

The filed quantity is “Percent Effect” (%). The record does not define 0% and 100%; most values in the screen are far below 50% and negative numbers occur (in some assays of this library far below -100). The compounds are a random part of those screened.

| compound | percent effect |
|---|---|
| `O=S(=O)(NC1=NCN(CCc2cccs2)CN1)c1ccc(Br)cc1` | -24.33 |
| `CC(COc1ccccc1)NCc1cn2ccccc2n1` (stereo not given) | -8.932 |
| `CCNC(=O)Nc1ccc(N2CCC(OC)CC2)c(C(F)(F)F)c1` | -17.82 |
| `Cc1cc2[nH]c(CN3CCCCC3c3cccc(F)c3)cc(=O)n2n1` (stereo not given) | 26.85 |
| `Cn1cc(C2CCCN2Cc2csc(-c3ccccc3)n2)cn1` (stereo not given) | 7.689 |
| `O=C(c1ccc(Cl)cn1)N1CCC(COCc2ccccc2)C1` (stereo not given) | 7.533 |
| `CCC(Nc1ncccn1)c1cccnc1` (stereo not given) | -1.375 |
| `CC(C)=CCN1CCN(C(=O)c2cc(C(C)C)no2)[C@H]2CS(=O)(=O)C[C@H]21` | -5.523 |
| `CN(CC1COc2ccccc2O1)C(=O)NCCCn1ccnc1` (stereo not given) | -34.49 |
| `COc1ccc(S(=O)(=O)N2CC(CC(=O)O)c3ccccc32)cc1` (stereo not given) | 0.8864 |
| `CN(Cc1ccsc1)C(=O)Nc1ccc(=O)n(C)c1` | -41.13 |
| `Cc1cnn(CCNCc2ccccc2Oc2cccnc2)c1` | -13.48 |
| `Cc1nn(C)c(C)c1CN1CCN(CC2(O)CCCN(C)C2)CC1` (stereo not given) | 8.317 |
| `Cc1nc(N(C)C)ncc1C(=O)NCCc1csc(-c2cnccn2)n1` | -3.384 |
| `Cc1cc(-c2cc(F)ccc2C(=O)O)nc(C2CCCCN2C(C)C)n1` (stereo not given) | -9.035 |
| `COCC1CCCN(C(=O)c2ccccc2NCc2cccnc2)C1` (stereo not given) | 4.141 |
| `O=C(c1ccncc1)N1CC[C@@H]2CN(C3CCOCC3)CCO[C@@H]2C1` | -16.72 |
| `CC(NCCc1nccn1Cc1ccccc1)c1cccs1` (stereo not given) | -1.495 |
| `Cc1ccoc1C(=O)N1CCOC2(CCCC2)C1` | -22.44 |
| `CNS(=O)(=O)CCn1cc(-c2ccc(NC(C)=O)cc2)nn1` | 16.93 |
| `CCc1nnsc1C(=O)N1CCCN(Cc2ccc(C)cc2)CC1` | -11.88 |
| `CNc1ccc(CC2CCCN(C(=O)c3cncnc3C)C2)nn1` (stereo not given) | -2.017 |
| `CCOc1ccccc1NC(=O)NCCc1ccoc1` | -19.48 |
| `CCCC(C)NC(=O)CCN1C(=O)CCc2cc(F)ccc21` (stereo not given) | -22.43 |
| `COc1cccc(N2CCN(C(=O)C(O)c3ccccc3Cl)CC2=O)c1` (stereo not given) | 55.49 |
| `O=C(NCc1ccccc1CN1CCCCC1)Nc1nncs1` | -11.57 |
| `CO[C@@H]1CC[C@H]2[C@H]1OCCN2C(=O)C1CCOCC1` | 20.74 |
| `Cc1ncsc1C(=O)NC1CCN(Cc2cccnc2)CC1` | -33.54 |
| `COc1ccc(C(C)Nc2cnn(C)c(=O)c2Cl)cc1OC` (stereo not given) | 2.818 |
| `CCOC(=O)N1CCN(C(=O)C2CC(=O)N(c3ccccc3Br)C2)CC1` (stereo not given) | 50.91 |
| `CC(C)N1[C@H](Cn2cncn2)C[C@@H]2CNCC[C@@H]21` | -20.66 |
| `CC(C)N(Cc1ccccn1)S(=O)(=O)N1CCCC1c1ccco1` (stereo not given) | -43.9 |
| `CO[C@@H]1CCN(S(=O)(=O)c2cccs2)[C@H]1Cc1ccccc1` | -9.542 |
| `CCOc1ccccc1C(=O)NCCc1ccoc1` | -13.15 |
| `O=C(N1CCc2ccccc2CC1)C1(O)Cc2ccccc2C1` | -12.5 |
| `Cc1nn(C)c(C)c1C1CCCN1C(=O)CCNS(C)(=O)=O` (stereo not given) | -21.26 |
| `CN(C)C(=O)c1cccc(C2CNCCN2C)c1` (stereo not given) | 3.142 |
| `C[C@@H](N)C(=O)N1CC2(CCNCC2)c2cc(Cl)ccc21` | -22.03 |
| `COC1CCN(C(=O)Cn2nc(C)cc2C)CC1` | -13.55 |
| `Cc1noc(C)c1CN1C[C@@H]2CCCO[C@@H]2[C@H](NS(C)(=O)=O)C1` | -27.63 |
| `Cc1noc(C)c1CNC(=O)NCCOc1ccc(F)cc1F` | -22 |
| `CC(C)OC(=O)CNC(=O)Nc1ccc(-c2nc(C(C)C)no2)cc1` | -24.05 |
| `CN(Cc1cccnc1)Cc1cncc2c1CCN(c1ccccn1)C2` | -27.12 |
| `O=C(NCc1ccccn1)NCC(c1ccco1)N1CCCC1` (stereo not given) | -24.47 |
| `CCN(Cc1nc2c(cnn2C)c(=O)[nH]1)c1ccccc1` | 66.85 |
| `Cc1nnc(CN(C)CC(=O)NCCc2ccc(F)cc2)n1C` | -11.06 |
| `O=C1CC(c2ncc(-c3ccc4c(c3)OCCO4)[nH]2)CN1C1CCCC1` (stereo not given) | -37.61 |
| `Cn1cc(C2CC(=O)NC23CCN(C(=O)NC2CC2)CC3)cn1` (stereo not given) | -11.06 |
| `COc1ccc(N2Cc3nc(=O)[nH]n3C2=O)cc1` | 16.29 |
| `CC(=O)NCCNC(=O)Nc1cc(C(C)(C)C)sc1C#N` | -4.309 |
| `CCOc1ccc(C(=O)N2CCCC(n3ccnc3C)C2)cc1OC` (stereo not given) | -16.25 |
| `CC(C)NC(=O)c1csc(NC2CC2)n1` | 3.378 |
| `Cc1cc(N(C)C)nc(C2COCCN2Cc2cc(C)on2)n1` (stereo not given) | -7.443 |
| `Cc1nnc2ccc(N3CCC4(CCOC4)C3)nn12` (stereo not given) | -20.11 |
| `Cc1ncc(CNC(=O)CCc2ccccc2F)c(C2CCCN2C)n1` (stereo not given) | -13.78 |
| `Cc1cccc(N2CCN(CCCNC(=O)c3nccn3C)CC2)c1` | -13.2 |
| `Cc1ccc(S(=O)(=O)NC[C@H]2OC[C@@H](NCc3cccs3)[C@@H]2O)cc1` | 40.97 |
| `CCn1nc(C)c(CCNC(=O)C2CCCN(C(=O)N(C)C)C2)c1C` (stereo not given) | -8.911 |
| `COCCN1CCC2(CC1)CC(c1cccnc1)CO2` (stereo not given) | -13 |
| `CNC(=O)N1CCOC(C)(c2cnn(C)c2)C1` (stereo not given) | -30.36 |
| `CCCc1ccc(OC23CCCN(CC2)C3)c(OC)c1` (stereo not given) | -11.58 |
| `COc1ccc2cc(-c3n[nH]cc3CN3CCSCC3)ccc2c1` | -6.425 |
| `Nc1cc(CCC2CN(Cc3ccc(C(=O)O)cc3)CCO2)ccn1` (stereo not given) | -7.754 |
| `Cn1cc(CN2CCOC3(CCCN(c4cccc(F)c4)C3)C2)cn1` (stereo not given) | 2.034 |
| `COC(=O)c1ccc(OC)c(Cn2cc(Br)cn2)c1` | -4.229 |
| `CCn1cc(C(=O)NCc2csc(C3CC3)n2)c(C)n1` | -9.594 |

Once more, the final 6:

compound,percent effect
CCCc1ccc(OC23CCCN(CC2)C3)c(OC)c1 (stereo not given),-11.58
COc1ccc2cc(-c3n[nH]cc3CN3CCSCC3)ccc2c1,-6.425
Nc1cc(CCC2CN(Cc3ccc(C(=O)O)cc3)CCO2)ccn1 (stereo not given),-7.754
Cn1cc(CN2CCOC3(CCCN(c4cccc(F)c4)C3)C2)cn1 (stereo not given),2.034
COC(=O)c1ccc(OC)c(Cn2cc(Br)cn2)c1,-4.229
CCn1cc(C(=O)NCc2csc(C3CC3)n2)c(C)n1,-9.594

Data taken from ChEMBL document CHEMBL3988442, “University of Dundee, Small-Polar-MMV Screening Library” (2021).